Measurements taken from patent US10274499B2, “SH2 domain variants” (THE UNIVERSITY OF WESTERN ONTARIO, priority 2012, dated 2019).

Test system: A549 cells
Test: subcellular localization of GFP-fused SH2 domains in live cells
Format: cell-based
Conditions: 16 to 20 hours after transfection

Substance: wild-type Src SH2 domain: human Src SH2 domain between Asp144 and Lys252; SEQ ID NO:18 [reference compound]
- subcellular localization of GFP fusion: distributed more or less evenly in the cell with a slight enrichment in the nuclear region
